# The supplement of paper PMC7666118
# The chains behind the UniProt entries cited, without tags or fusion partners. Where a name states a change or a piece, a line headed by the entry shows the natural chain unless it says otherwise.
# UniProt Q9BZX2: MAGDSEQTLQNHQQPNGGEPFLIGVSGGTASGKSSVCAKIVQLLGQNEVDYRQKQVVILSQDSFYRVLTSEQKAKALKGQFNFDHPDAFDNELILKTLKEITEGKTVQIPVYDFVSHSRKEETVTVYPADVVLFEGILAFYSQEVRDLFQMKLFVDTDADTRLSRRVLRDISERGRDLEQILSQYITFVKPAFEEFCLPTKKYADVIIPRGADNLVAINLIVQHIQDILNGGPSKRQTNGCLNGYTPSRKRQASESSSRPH
# UniProt Q01081: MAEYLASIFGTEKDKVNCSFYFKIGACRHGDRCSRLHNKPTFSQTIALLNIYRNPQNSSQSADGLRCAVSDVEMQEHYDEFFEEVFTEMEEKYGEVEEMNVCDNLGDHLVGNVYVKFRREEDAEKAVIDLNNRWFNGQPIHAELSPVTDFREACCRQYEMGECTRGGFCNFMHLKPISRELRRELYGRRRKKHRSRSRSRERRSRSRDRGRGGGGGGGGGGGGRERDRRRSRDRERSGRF
# UniProt Q9NUQ7: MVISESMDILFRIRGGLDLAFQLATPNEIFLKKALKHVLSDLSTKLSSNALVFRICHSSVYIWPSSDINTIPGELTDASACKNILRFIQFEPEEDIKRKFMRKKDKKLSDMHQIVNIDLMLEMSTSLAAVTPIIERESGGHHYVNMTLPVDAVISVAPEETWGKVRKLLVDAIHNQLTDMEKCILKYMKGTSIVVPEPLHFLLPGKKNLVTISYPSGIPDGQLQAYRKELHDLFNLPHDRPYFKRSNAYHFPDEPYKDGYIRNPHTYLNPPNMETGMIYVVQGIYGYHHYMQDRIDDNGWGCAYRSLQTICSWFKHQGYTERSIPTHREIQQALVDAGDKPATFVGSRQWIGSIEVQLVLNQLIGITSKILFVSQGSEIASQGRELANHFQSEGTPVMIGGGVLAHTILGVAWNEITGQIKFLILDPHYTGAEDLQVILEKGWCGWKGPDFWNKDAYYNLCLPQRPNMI
# UniProt Q86Y07: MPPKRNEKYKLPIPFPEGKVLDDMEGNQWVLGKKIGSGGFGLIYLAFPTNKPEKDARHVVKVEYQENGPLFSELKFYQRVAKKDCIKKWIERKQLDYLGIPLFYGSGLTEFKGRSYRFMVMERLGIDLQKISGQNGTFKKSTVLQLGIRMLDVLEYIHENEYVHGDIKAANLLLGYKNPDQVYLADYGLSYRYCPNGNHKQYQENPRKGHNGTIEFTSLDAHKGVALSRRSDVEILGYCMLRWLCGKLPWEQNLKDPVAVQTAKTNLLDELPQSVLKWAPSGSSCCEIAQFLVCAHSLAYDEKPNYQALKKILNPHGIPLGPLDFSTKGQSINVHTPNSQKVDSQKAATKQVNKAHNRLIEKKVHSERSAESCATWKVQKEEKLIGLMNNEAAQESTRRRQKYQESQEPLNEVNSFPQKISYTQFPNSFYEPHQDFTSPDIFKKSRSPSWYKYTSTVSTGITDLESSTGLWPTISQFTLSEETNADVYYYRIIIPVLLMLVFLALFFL
# UniProt Q9NNW7, whole entry: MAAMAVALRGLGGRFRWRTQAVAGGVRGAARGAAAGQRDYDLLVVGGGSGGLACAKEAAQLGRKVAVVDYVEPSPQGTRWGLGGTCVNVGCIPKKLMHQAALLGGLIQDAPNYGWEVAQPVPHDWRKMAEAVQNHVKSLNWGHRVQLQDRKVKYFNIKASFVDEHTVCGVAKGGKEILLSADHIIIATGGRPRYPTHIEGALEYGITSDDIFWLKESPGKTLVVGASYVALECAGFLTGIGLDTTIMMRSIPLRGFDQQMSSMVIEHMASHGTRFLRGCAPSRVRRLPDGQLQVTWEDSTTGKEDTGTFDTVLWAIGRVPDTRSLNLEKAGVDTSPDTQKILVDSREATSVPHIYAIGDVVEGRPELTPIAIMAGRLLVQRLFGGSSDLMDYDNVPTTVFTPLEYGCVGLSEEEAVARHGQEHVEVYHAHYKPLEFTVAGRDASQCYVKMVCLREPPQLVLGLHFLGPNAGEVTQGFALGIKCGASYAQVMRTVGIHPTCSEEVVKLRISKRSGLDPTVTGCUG
# UniProt Q7Z5K2: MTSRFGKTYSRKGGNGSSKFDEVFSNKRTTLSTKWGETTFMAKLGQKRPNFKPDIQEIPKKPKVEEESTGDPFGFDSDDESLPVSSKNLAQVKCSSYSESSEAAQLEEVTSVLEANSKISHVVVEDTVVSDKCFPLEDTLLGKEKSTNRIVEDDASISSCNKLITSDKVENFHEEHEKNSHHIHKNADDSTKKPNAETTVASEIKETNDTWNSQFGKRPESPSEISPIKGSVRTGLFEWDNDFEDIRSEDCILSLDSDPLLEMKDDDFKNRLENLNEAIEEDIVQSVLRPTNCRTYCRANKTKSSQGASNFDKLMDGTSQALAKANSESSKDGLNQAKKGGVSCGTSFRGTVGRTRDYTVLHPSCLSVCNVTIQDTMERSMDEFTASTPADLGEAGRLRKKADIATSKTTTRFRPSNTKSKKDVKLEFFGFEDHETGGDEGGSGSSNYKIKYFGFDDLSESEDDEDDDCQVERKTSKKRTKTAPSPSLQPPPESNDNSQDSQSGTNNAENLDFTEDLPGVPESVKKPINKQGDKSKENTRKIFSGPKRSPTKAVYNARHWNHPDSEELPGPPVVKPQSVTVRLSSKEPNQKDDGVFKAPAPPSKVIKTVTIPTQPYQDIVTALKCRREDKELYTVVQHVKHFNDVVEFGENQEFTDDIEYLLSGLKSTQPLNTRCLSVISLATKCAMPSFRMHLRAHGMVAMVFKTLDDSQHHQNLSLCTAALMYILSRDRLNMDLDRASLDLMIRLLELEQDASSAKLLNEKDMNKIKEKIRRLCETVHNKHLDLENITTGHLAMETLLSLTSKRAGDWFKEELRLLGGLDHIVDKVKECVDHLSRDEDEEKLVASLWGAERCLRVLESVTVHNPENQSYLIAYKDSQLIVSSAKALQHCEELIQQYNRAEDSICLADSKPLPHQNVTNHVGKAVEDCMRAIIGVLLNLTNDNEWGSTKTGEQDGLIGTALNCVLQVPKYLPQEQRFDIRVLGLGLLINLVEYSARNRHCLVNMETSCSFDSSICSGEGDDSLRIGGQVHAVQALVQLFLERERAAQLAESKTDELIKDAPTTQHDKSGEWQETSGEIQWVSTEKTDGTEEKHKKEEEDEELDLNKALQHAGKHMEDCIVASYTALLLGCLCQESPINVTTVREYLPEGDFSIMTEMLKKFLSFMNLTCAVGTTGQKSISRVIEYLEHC
# UniProt Q96I51, whole entry, looked up: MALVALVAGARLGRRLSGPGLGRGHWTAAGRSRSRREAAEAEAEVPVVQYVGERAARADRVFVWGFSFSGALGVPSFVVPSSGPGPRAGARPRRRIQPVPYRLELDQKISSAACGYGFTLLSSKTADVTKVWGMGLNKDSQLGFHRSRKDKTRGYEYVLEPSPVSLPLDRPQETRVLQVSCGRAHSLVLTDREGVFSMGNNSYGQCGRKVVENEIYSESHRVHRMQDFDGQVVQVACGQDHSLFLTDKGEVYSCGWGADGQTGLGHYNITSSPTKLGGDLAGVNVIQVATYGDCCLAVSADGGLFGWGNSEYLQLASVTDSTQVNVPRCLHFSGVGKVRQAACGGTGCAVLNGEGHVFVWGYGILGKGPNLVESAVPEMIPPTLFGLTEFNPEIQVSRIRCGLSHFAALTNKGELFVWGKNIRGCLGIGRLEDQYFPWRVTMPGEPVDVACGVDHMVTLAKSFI
# UniProt P33981: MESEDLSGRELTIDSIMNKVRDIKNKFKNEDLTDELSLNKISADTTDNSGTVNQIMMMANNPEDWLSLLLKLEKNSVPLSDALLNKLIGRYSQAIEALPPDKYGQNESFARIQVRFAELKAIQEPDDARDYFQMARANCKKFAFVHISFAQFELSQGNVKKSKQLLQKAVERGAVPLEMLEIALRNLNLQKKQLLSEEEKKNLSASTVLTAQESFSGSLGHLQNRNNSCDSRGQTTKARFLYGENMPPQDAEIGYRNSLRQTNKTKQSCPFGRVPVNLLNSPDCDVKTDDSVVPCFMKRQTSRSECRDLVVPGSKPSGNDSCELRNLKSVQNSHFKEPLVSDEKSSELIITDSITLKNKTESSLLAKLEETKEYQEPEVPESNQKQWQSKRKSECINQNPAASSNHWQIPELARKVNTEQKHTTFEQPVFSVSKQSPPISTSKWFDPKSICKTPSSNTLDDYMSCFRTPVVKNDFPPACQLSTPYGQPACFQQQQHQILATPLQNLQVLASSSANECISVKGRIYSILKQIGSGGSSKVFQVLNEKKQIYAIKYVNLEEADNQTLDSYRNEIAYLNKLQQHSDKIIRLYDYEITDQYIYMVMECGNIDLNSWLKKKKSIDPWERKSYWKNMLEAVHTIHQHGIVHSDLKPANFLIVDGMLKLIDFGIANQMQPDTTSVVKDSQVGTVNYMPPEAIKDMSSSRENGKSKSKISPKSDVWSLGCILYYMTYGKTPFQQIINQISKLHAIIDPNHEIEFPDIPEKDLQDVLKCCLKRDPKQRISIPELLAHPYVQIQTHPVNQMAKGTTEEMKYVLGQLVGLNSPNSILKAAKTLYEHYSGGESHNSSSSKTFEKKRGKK
# UniProt P62256: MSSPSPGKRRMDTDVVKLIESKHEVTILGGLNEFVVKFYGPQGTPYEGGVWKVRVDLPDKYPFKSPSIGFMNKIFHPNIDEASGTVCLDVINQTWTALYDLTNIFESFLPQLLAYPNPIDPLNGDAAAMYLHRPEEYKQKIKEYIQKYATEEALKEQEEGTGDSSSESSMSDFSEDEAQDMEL
# UniProt Q9UDW1: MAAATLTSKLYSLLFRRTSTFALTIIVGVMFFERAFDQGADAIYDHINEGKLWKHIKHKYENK
# UniProt Q9NPD8: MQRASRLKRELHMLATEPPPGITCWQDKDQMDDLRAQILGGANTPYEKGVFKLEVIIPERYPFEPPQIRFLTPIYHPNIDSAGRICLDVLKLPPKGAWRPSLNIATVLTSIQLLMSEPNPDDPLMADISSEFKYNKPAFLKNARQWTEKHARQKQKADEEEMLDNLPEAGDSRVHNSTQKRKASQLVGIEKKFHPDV
# UniProt Q04323: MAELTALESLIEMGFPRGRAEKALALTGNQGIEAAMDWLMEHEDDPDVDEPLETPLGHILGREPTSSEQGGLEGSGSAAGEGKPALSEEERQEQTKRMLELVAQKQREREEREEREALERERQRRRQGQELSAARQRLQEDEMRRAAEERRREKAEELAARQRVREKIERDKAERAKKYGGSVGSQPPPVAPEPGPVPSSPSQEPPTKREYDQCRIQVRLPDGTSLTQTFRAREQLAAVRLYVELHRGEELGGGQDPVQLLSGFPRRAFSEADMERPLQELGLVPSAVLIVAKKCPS
# UniProt P11441: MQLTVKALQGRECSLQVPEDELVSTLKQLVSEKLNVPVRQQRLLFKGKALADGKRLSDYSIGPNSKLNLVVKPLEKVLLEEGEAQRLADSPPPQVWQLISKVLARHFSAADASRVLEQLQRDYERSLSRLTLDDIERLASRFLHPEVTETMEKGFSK
# UniProt Q92900: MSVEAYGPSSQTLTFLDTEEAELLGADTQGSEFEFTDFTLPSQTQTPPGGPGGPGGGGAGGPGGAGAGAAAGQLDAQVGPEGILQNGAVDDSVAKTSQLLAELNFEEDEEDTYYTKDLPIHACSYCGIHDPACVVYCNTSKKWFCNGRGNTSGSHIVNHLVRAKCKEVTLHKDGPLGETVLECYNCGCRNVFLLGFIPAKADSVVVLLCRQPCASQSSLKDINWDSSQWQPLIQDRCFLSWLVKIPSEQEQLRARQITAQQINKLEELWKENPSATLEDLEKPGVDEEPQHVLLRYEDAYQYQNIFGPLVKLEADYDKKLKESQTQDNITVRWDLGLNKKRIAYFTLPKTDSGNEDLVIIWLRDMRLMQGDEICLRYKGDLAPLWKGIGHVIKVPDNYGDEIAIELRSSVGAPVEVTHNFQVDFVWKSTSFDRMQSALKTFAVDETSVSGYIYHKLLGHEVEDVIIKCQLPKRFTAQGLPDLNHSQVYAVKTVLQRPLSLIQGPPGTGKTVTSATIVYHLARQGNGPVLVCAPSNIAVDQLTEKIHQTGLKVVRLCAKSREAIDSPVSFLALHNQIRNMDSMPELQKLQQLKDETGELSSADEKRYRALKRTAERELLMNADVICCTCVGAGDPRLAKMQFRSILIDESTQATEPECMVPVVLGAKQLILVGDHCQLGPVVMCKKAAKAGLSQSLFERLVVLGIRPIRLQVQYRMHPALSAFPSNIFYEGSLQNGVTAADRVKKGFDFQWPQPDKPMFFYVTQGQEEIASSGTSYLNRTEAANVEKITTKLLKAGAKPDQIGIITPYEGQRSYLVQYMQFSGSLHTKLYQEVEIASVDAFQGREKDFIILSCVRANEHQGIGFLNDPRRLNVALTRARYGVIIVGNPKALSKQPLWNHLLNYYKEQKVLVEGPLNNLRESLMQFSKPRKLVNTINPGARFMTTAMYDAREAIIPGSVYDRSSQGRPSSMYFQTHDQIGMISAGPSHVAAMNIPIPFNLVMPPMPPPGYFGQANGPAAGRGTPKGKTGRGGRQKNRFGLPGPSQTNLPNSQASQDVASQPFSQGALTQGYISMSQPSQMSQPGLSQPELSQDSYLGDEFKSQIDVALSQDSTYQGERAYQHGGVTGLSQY
# The list shows a part of the results.
# Compound: COc1ccc(Cn2ccc3cc(C)c(C(=O)NO)cc32)cc1
# Assay: dose-dependent thermal stabilisation call (2D-TPP, DLPTP, 10% FDR) (binary (1 = stabilised)); higher = stabilised by the compound
# Settings: system: HL-60 intact cells; concentration range 0.04-10 µM
# Protocol: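 2D thermal proteome profiling in intact HL-60 cells treated with BRD-3811 (0, 0.04, 0.29, 2, 10 uM) for 90 min at 37 C, then heated 3 min at one of 12 temperatures (42-63.9 C). Soluble protein was quantified by TMT10 MS. The value is the DLPTP call of the paper: dose-dependent thermal stabilisation over all temperatures at 10% FDR (F-test of a dose-response against a flat model); one experiment, one call per tested protein.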
row,Target,dose-dependent thermal stabilisation call
1,WASH1 (UniProt A8K0Z3),inactive: 0
2,VPS72 (UniProt Q15906),inactive: 0
3,UCK2 (UniProt Q9BZX2),inactive: 0
4,TUBGCP3 (UniProt Q96CW5),inactive: 0
5,U2AF1 (UniProt Q01081),inactive: 0
6,VPS26B (UniProt Q4G0F5),inactive: 0
7,UFSP2 (UniProt Q9NUQ7),inactive: 0
8,TYMS (UniProt P04818),inactive: 0
9,WDFY4 (UniProt Q6ZS81),inactive: 0
10,VRK2 (UniProt Q86Y07),inactive: 0
11,TXN2 (UniProt Q99757),inactive: 0
12,VPS37B (UniProt Q9H9H4),inactive: 0
13,TXNRD2 (UniProt Q9NNW7),inactive: 0
14,WAPAL (UniProt Q7Z5K2),inactive: 0
15,USP32 (UniProt Q8NFA0),inactive: 0
16,TXNDC13 (UniProt Q9H1E5),inactive: 0
17,VPS13A (UniProt Q96RL7),inactive: 0
18,UTP14C (UniProt Q5TAP6),inactive: 0
19,TXNL1 (UniProt O43396),inactive: 0
20,WBSCR16 (UniProt Q96I51),inactive: 0

row,Target,dose-dependent thermal stabilisation call
1,TUBGCP6 (UniProt Q96RT7),inactive: 0
2,UBE2Z (UniProt Q9H832),inactive: 0
3,TTK (UniProt P33981),inactive: 0
4,USP3 (UniProt Q9Y6I4),inactive: 0
5,VPS26A (UniProt O75436),inactive: 0
6,UROD (UniProt P06132),inactive: 0
7,TUBA4A (UniProt P68366),inactive: 0
8,TXNRD3 (UniProt Q86VQ6),inactive: 0
9,UBE2H (UniProt P62256),inactive: 0
10,VRK1 (UniProt Q99986),inactive: 0
11,TXNDC11 (UniProt Q6PKC3),inactive: 0
12,VAMP5 (UniProt O95183),inactive: 0
13,VPS11 (UniProt Q9H270),inactive: 0
14,UCRC (UniProt Q9UDW1),inactive: 0
15,UBE2T (UniProt Q9NPD8),inactive: 0
16,TUBB (UniProt P07437),active: 1
17,UBXN1 (UniProt Q04323),inactive: 0
18,UBL4A (UniProt P11441),inactive: 0
19,USP48 (UniProt Q86UV5),inactive: 0
20,UPF1 (UniProt Q92900),inactive: 0

# Quoted at random: 3 entries already listed, in no set order.
row,Target,dose-dependent thermal stabilisation call
1,TUBGCP6 (UniProt Q96RT7),inactive: 0
3,TTK (UniProt P33981),inactive: 0
12,VAMP5 (UniProt O95183),inactive: 0
